Drawing on publication PMC10611619 (European Journal of Nuclear Medicine and Molecular Imaging, 2023), this text covers conjugation yield and difficulty met for one substance.

The series is described as follows: general procedure: hybrid (solid and solution phase) peptide synthesis; 2-Chlorotrityl chloride (2-CTC) resin; HOBt/TBTU with DIPEA; HOAt/HATU. As to conditions: conjugation step, sequence written open.

Consider HYNIC-L6-CPCR4, for which, for the setting “based on L6-CPCR4, head-to-tail ring”, the conjugation yield is recorded as 3.4%. Moreover, the difficulty met result (head-to-tail ring) is recorded as “formation of trifluoroacetyl-HYNIC as a side product during the last deprotection step limited the yield”.
